# From PMC6167110, “NgcE^Sco Acts as a Lower-Affinity Binding Protein of an ABC Transporter for the Uptake of N,N′-Diacetylchitobiose in Streptomyces coelicolor A3(2)” (Microbes and Environments, 2018)
# By UniProt entry, the sequences of proteins in these tests, tags left out. Where a name states a change or a piece, a line headed by the entry shows the natural chain unless it says otherwise.
# UniProt Q9K492: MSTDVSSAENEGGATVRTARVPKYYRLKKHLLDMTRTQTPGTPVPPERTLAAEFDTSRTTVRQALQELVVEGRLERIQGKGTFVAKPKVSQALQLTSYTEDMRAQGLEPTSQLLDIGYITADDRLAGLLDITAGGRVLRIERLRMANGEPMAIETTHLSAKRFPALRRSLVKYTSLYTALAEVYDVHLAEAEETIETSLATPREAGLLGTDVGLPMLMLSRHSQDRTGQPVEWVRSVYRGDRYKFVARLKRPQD
# The exact form of at least one protein or probe is not confirmed. The comparison behind a weaker result is the experiment's own reference, which may not be listed here.
# Biological target: DasR-6His (Streptomyces coelicolor A3(2)) (UniProt Q9K492)
# Assay: EMSA
# Details: 1% agarose gel, pH and temperature not given, recombinant protein, protein details: C-terminal 6xHis, label: Cy5 on the printed strand
sequence,measurement,setting,value
CCGCCAAGCGAAAGTGGACTATACCTGTCGGCACTCCGGG (double strand) [drengcE],binding result,GlcN-6P (mM range); probably uM) in 50 uL,binds more weakly
same,binding result,"GlcNAc-6P (mM range, stronger inhibitor than GlcN-6P); probably uM) in 50 uL",binds more weakly
